Earlier results in patent US20220183969A1, “OCULAR INSERT CONTAINING A GLUCOCORTICOID” (Ocular Therapeutix, Inc., priority 2020, published 2022).

Structure (SMILES): C[C@@H]1C[C@H]2[C@@H]3CCC4=CC(=O)C=C[C@]4(C)[C@@]3(F)[C@@H](O)C[C@]2(C)[C@@]1(O)C(=O)CO [Dexamethasone, 9-Fluor-11β,17,21-trihydroxy-16α-methyl-pregna-1,4-dien-3,20-dion]
- solubility in an aqueous medium (aqueous medium such as the tear fluid): less than 100 μg/mL
- solubility in water (at 25° C.): approx. 89 mg/L
